In PubChem BioAssay AID1508600 (Functional Genomics Laboratory (NCATS/FGL), 2020) one finds z-score data, which are given here for 107 sequences.

In all, about 53,000 sequences went through this assay and about 3,700 (7%) were called active.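 Rule for the calls: active = gene knockdowns whose robust z-score for IL-1 alpha signal is at least 2 or at most -2, so actives lie on both sides; inactive = the rest.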 Some of the results follow.

The nature of this test: Components of the Cytosolic LPS Sensing Pathway: Gene Identification via Genome-wide siRNA Screen.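 Note: robust z of the log signal after scaling to non-targeting control siRNA wells of the plate.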 To be noted: RAW264.7 macrophages, IL-1a HTRF, actives lie on both sides, screened at 100 nM (by protocol), cells primed 5 h with Pam3CSK4 first. Summed up:
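Cells (RAW264.7, 1×10^4 per well) were transfected with siRNA at 100 nM and cultured 48h at 37 degrees C. Pam3CSK4 was added for 5 hours; LipidA transfection followed for 24 hour. IL-1a was then measured by HTRF.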
As for CCGGGAAAUUCUGUUAGCCTT against Pla2g1b, the z-score was inactive: -1.95.

CCACAUUUAUGGCUAAAUUTT against Wapl: the z-score was inactive: 0.164.

With GCCAGCAACCCUCUUCGUUTT against Foxo6, the z-score is inactive: 0.142.

As to GCCGUCUUCCGAAGAAUACTT against Mettl1, the z-score is inactive: 0.11.

With GGGCAUGUGGAUGACUGAUTT against Gnptg, the z-score is active: 2.04.

Regarding GAAGACUCGGAAGAAAAUGTT against Prr13, the z-score was inactive: -0.542.

As for GGUUCUCUUGUAAAGAUGUTT against Slco1a1, the z-score is inactive: -0.238.

As for GGUAAUGCUUGAAGAUAAUTT against Ivns1abp, the z-score is inactive: -1.75.

With CCAAAUGCUUAUCUCUACATT against Dock6, the z-score is inactive: 0.00388.

Take GGGUUUGAGUGCUGUGAAGTT against Ap4s1: the z-score is active: -2.66.

GGUGCUUUGAAGUUUUUCATT against Rabgap1l: the z-score is inactive: 0.181.

Regarding GGAAAUGUGAAAGCUCUGUTT against Ttc34, the z-score was inactive: -0.718.

With GGUUUGGUUGAAAUUGAACTT against Smc5, the z-score is inactive: -1.16.

On to CGACAUGUAGCUCUGCAUCTT against Tmem25, for which the z-score was inactive: -1.05.

For GGAAUUGAAGUCAGAGUUATT against Myoc, the z-score is inactive: -0.967.

As for GGCCUGAACACACUGACAATT against Lrrcc1, the z-score is inactive: -1.47.

With GCACAUUUUGCGAGUACUCTT against Rps18, the z-score is inactive: 0.486.

In the case of GCUACGAGAUUCUUGUUGCTT against Taar3, the z-score is inactive: -0.615.

For the sequence GGAAGCUUAUAAAAAUGUGTT against Htatip2, the z-score is inactive: -1.4.

With GGAGCGAGUAGACAUUCUGTT against Rdh13, the z-score is inactive: 1.72.

As for GGGAACAAAGCUGACCUUGTT against Rab5b, the z-score was inactive: -0.319.

Consider “GGAACUCUGGAAUAAUCUGTT against St6galnac2”, for which the z-score is inactive: 1.58.

Consider GCUGGAGUUCAGAACAUAATT against Trav7d-6, for which the z-score is inactive: -0.822.

For CGUGGAUGUGUCAUCUAUUTT against Mapk10, the z-score was inactive: 1.27.

With GGCUCAGAUUUUGUGAUUCTT against Olfr894, the z-score is inactive: -1.44.

Turning to CGAUCAGUGGUAUAAACUGTT against Maats1, the z-score was inactive: -0.0818.

With GGUAGUCAUUAUUAGGUGUTT against Mreg, the z-score is inactive: 1.28.

For the sequence GGUUUGCAUAUCUCACCCUTT against Sirt6, the z-score was active: -2.38.

On to GGUGGAAAAGCAAUUCCUUTT against Cma1, for which the z-score is inactive: -0.243.

Turning to GCUGAUCCAACUGGAAUCUTT against Cep164, the z-score was inactive: 0.61.

As to CCGGCAACAUGCGUGAAUUTT against Trpv4, the z-score is inactive: -0.506.

Consider GAAAAACUGCUGUUUUGGATT against Ly6g6d, for which the z-score is inactive: 1.87.

As to CCUCCACAUUUAUUUGCUATT against Mbtd1, the z-score was inactive: 1.23.

As to GGGAAUUUUCUCCAAAAUUTT against Cdcp3, the z-score is inactive: 1.07.

Turning to GGUGCAGAAUGCAAUGGAUTT against Ing3, the z-score is active: 2.51.

“GGAUCUACAUGCUUCUCAGTT against 1700018B24Rik”: the z-score was inactive: -0.967.

Take GGACCUCUGUGAGGAAGUGTT against Prkcz: the z-score was inactive: -1.19.

Consider CGAGAUGUUUAUUCAACAUTT against Tcf23, for which the z-score is inactive: -0.431.

In the case of GGCUCCACACGAUUGUUAGTT against Gne, the z-score is inactive: -0.0134.

Consider GGAUCAUUGAUGUUGUCUATT against Rps8, for which the z-score was inactive: -0.39.

Consider GGUUCAUCUGUACAAAAUCTT against Zfp110, for which the z-score was inactive: 0.708.

Turning to GGUGCUCUUAAUUCAUAUATT against Cwc25, the z-score was inactive: 0.4.

For GCCCAUUGAGUUUGAUUCATT against Itgav, the z-score is inactive: 1.57.

For GGUCUGGAUGCUUUAGAAUTT against Fam114a1, the z-score was inactive: -0.373.

As for GGAAUUCAAGAAUGCACAGTT against Jarid2, the z-score was inactive: -0.173.

On to GGAUCACACUAGUAUUUUCTT against Sertad2, for which the z-score was inactive: -0.923.

As to GGAGGUCACUCUUAUCCACTT against Aifm2, the z-score is inactive: 0.229.

Turning to GGGUAGCCAAACAAAGACATT against Cenpt, the z-score is inactive: 1.75.

For GCUACAAUUGUCUAAAUCCTT against Slc25a20, the z-score is inactive: -0.302.

Turning to CCAGAACCGUUACUUAGACTT against Bet1l, the z-score is inactive: -0.378.

Turning to GGAAGAAGAAGUGUCACUATT against Wasf2, the z-score was inactive: -0.057.

GGUGAAUACCAGAAGUAAATT against Slc6a8: the z-score is inactive: -0.602.

Turning to GGAAGCAGCCAAGAAGUUATT against Olfr259, the z-score was inactive: 0.28.

As for GGGCAGAAUCCAUUGACAATT against Chmp5, the z-score was inactive: 0.748.

Take GGAUGGUGAGAAGCUGAUCTT against Omp: the z-score is inactive: 0.458.

Consider CGCACCCACCAUGUUUUAUTT against Radil, for which the z-score is inactive: 1.03.

Consider CGAUCGAAUCCUUAAGUACTT against Ttll1, for which the z-score is inactive: -0.0193.

For CCAUACACAACAUUCCAGATT against Slc39a11, the z-score was inactive: 0.0339.

Consider GGACUUUGAAUCAUGUGAATT against Lss, for which the z-score is inactive: -0.659.

Regarding CGAUCAUGAAUCCUCAAACTT against Olfr828, the z-score is inactive: -0.915.

Turning to CCCUGACACAGUAGCAUUUTT against Eef1a1, the z-score was inactive: -0.778.

As for GGACUUCCAGUACCUAAGGTT against Smpd2, the z-score is inactive: -0.381.

For AGGAGCUUUGCUUAGCACUTT against Ccdc85b, the z-score is inactive: -0.981.

Turning to GGGAAGAUUGUGCAAAUGUTT against Zfp386, the z-score was inactive: -0.535.

GGCCCACUUAUGAUGUACATT against Eef2: the z-score is inactive: 0.0822.

For CGAGGCACCAGAUUUGUAATT against Klhl30, the z-score is inactive: -0.379.

For the sequence GCUAAACAUAAAAAUCGACTT against Garre1, the z-score was inactive: -1.27.

With GGUUUGUGGUGAACUUUCATT against Lgals9, the z-score was inactive: 0.707.

Take GGAUUGCCAUCUGUGGUGCTT against Ptgr1: the z-score was inactive: -0.719.

With GCCCAGAAUAGACAAACCGTT against Wfdc15b, the z-score was inactive: -1.95.

With GAGUCCUUGGGACAUUCUCTT against Olfr168, the z-score was inactive: 0.428.

For GCACCGGGCUGAACUUUACTT against Lhcgr, the z-score is inactive: 0.957.

For the sequence GGAAGAUGGAGGAGAAGAATT against Hrh3, the z-score is inactive: -1.37.

For GGGCAACUAUCUUCAAAAATT against Nxnl2, the z-score was inactive: 0.328.

For GGGAGAAAUACAUACACACTT against Cish, the z-score is inactive: 1.46.

Consider AGAACAUGGAGGUUAAGAUTT against Plk5, for which the z-score was inactive: -1.3.

For GGCAUUUAGUAAAACCCUUTT against Rnf144a, the z-score was active: -2.43.

CCGUAACCCAGAAAAUGUATT against Eva1a: the z-score was active: -2.01.

On to GCUAAUGUGUUCAUUACAGTT against Nek7, for which the z-score was inactive: -0.256.

Regarding GCUUUAAGUACUUUAACGCTT against Ncr1, the z-score is inactive: 1.04.

As to GGAAUUCAAUCUCCUCUACTT against Popdc2, the z-score is inactive: -0.294.

Consider CGUGAAAAGGAGUUUCAAGTT against Map3k21, for which the z-score is inactive: 1.08.

For the sequence GCUUCCUUAUGGUUUGAACTT against Atp9a, the z-score is inactive: 1.06.

Regarding GGGUGCAGGAAUUGGUGUUTT against Cd37, the z-score was inactive: 0.582.

For GCGAGAUUGGUGCAAAACUTT against Grem1, the z-score was inactive: -1.43.

GGGCUCACAUUGUACACACTT against Nckap5: the z-score is inactive: 0.525.

On to GGGAAAGUAAGGGCUGGUUTT against Olfr317, for which the z-score was inactive: 0.553.

On to CCAUUGCCUACCUUGGAUGTT against Olfr492, for which the z-score was inactive: -0.839.

For the sequence GGAAUAGAUUUUUUGAGUGTT against Twistnb, the z-score is inactive: 0.465.

For CCACCUAAUUUAUUGCUGUTT against Mafk, the z-score was inactive: 0.745.

As to GGUGAAACUUGCACAAUAUTT against Rfwd3, the z-score is inactive: 0.137.

As to GUUGGCCAGAAUUCUGAAATT against Lyz1, the z-score was inactive: -0.555.

Turning to GGAUGCUAGCAAAAGGGAUTT against Bex2, the z-score was inactive: 0.597.

As to GGGAGAAGAAAUGGUUUAATT against Cd300a, the z-score was inactive: 1.13.

As to CGUGACUAUUGGAGAAUUUTT against Gpr156, the z-score was inactive: 0.295.

For the sequence GGGUAUGGUUUCAUCACUUTT against Boll, the z-score is active: -2.71.

GGUCUGUAUCCUUAUGGCUTT against Olfr103: the z-score was inactive: -0.0493.

On to GGUUUCCUUUUUGUUCAUUTT against Dlg3, for which the z-score was inactive: 0.566.

Consider GCAAUGUUCUCCGUAAACATT against Acss2, for which the z-score is inactive: 1.15.

For GCUUGGACCAUAAAUACUGTT against Senp5, the z-score is inactive: 0.051.

For the sequence CGACGAAUGUCCUGAACAUTT against Tmem106a, the z-score is inactive: -0.193.

GGUAUGGCAUUUCAAACCUTT against Mff: the z-score is inactive: -1.12.

For the sequence GGCAUUGAUCCUGUCCAUGTT against Ddx11, the z-score was inactive: -1.32.

Take CCAAGGUACAAUCUAACCATT against Chmp1a: the z-score was inactive: -0.407.

Take GCCACAGAAAGUGAUUGAGTT against Rbp7: the z-score was inactive: -0.418.

Take GCUAAACAUUAGGUAAAGGTT against Cyp24a1: the z-score was inactive: 0.524.

For the sequence GGGUUUGACAGAGAGAAGATT against Atp5g2, the z-score is inactive: -0.581.
